Results are given in words; binding and its absence hold for the method and conditions named. In cells and extracts the contact can be indirect. Some results given as binding are weak or reduced against the parent protein; the word gives no strength. For part of these data: Where a sequence is shown, tags or fusion partners need not be part of it. Blank lines part the entries; values can stand above or below the binder they belong to.
What was measured:
[1] = target: T1, RFWD3, endogenous (human (endogenous in A549 and H1299)) (UniProt Q6PCD5); assay: proximity ligation; Duolink in situ PLA with anti-RFWD3 and anti-TREX1 antibodies in fixed H1299 and A549 cells, endogenous proteins; no primary antibodies as negative control
T1 sequence: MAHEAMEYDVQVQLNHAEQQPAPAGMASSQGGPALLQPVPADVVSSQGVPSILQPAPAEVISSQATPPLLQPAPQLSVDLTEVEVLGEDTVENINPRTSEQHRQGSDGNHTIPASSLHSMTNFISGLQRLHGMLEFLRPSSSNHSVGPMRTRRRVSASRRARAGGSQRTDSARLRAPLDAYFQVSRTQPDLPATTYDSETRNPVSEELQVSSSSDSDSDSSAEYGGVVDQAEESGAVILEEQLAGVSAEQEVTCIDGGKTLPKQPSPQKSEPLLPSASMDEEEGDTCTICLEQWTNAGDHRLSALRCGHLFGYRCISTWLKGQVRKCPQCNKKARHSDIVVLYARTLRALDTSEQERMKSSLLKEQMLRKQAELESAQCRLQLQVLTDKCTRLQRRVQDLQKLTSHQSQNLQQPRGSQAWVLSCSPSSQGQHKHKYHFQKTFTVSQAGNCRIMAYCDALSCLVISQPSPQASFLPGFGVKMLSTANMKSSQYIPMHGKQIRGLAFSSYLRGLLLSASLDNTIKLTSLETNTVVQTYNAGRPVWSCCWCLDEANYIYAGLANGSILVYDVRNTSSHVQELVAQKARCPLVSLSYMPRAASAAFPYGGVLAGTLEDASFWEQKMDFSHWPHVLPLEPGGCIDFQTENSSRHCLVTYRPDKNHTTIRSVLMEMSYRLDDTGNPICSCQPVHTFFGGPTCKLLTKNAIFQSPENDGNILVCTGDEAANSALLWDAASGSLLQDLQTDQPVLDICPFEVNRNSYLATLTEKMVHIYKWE

[2] = target: T1, RFWD3, endogenous (human (endogenous in A549 and H1299)); assay: co-IP; endogenous proteins of A549 and H1299 lysates; antibody (2 µg) and Protein A/G PLUS-Agarose at 4 °C overnight; IP lysis buffer with 137 mM NaCl, 0.5% NP-40; western blot
[3] = target: T2, Flag-TREX1 (three-prime repair exonuclease 1) (UniProt Q9NSU2); assay: co-IP; A549 or H1299 cells stably expressing RFWD3 shRNA or control, transfected with Flag-TREX1 for 48 h; lysate, western blot
T2 sequence: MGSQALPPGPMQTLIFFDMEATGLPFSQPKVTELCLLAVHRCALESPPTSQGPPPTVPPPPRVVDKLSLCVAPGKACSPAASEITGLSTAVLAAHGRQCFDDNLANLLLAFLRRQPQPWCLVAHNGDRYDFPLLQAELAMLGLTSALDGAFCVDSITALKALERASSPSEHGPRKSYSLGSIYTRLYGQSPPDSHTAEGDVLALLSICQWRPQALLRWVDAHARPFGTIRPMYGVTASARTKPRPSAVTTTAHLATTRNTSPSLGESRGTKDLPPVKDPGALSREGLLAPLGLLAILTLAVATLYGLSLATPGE

[4] = target: T2, Flag-TREX1 (three-prime repair exonuclease 1); assay: co-IP; competitive co-IP: HEK293T co-transfected with Flag-TREX1, Myc-TRIM24 and HA-RFWD3, one of the latter two in rising amounts (4, 6, 8 µg), 48 h; lysate, western blot
[5] = target: T2, Flag-TREX1 (three-prime repair exonuclease 1); assay: co-IP; HEK293T transfected with HA-RFWD3 and Flag-TREX1 or empty vector; lysate, Protein A/G PLUS-Agarose, western blot

binding [1]: binds | binding [2]: binds
B1: TREX1, endogenous (protein, UniProt Q9NSU2 1-314)
chain: T2 sequence

binding [3]: binds
B2: TRIM24, endogenous (protein, UniProt O15164 1-1050)
chain: MEVAVEKAVAAAAAASAAASGGPSAAPSGENEAESRQGPDSERGGEAARLNLLDTCAVCHQNIQSRAPKLLPCLHSFCQRCLPAPQRYLMLPAPMLGSAETPPPVPAPGSPVSGSSPFATQVGVIRCPVCSQECAERHIIDNFFVKDTTEVPSSTVEKSNQVCTSCEDNAEANGFCVECVEWLCKTCIRAHQRVKFTKDHTVRQKEEVSPEAVGVTSQRPVFCPFHKKEQLKLYCETCDKLTCRDCQLLEHKEHRYQFIEEAFQNQKVIIDTLITKLMEKTKYIKFTGNQIQNRIIEVNQNQKQVEQDIKVAIFTLMVEINKKGKALLHQLESLAKDHRMKLMQQQQEVAGLSKQLEHVMHFSKWAVSSGSSTALLYSKRLITYRLRHLLRARCDASPVTNNTIQFHCDPSFWAQNIINLGSLVIEDKESQPQMPKQNPVVEQNSQPPSGLSSNQLSKFPTQISLAQLRLQHMQQQVMAQRQQVQRRPAPVGLPNPRMQGPIQQPSISHQQPPPRLINFQNHSPKPNGPVLPPHPQQLRYPPNQNIPRQAIKPNPLQMAFLAQQAIKQWQISSGQGTPSTTNSTSSTPSSPTITSAAGYDGKAFGSPMIDLSSPVGGSYNLPSLPDIDCSSTIMLDNIVRKDTNIDHGQPRPPSNRTVQSPNSSVPSPGLAGPVTMTSVHPPIRSPSASSVGSRGSSGSSSKPAGADSTHKVPVVMLEPIRIKQENSGPPENYDFPVVIVKQESDEESRPQNANYPRSILTSLLLNSSQSSTSEETVLRSDAPDSTGDQPGLHQDNSSNGKSEWLDPSQKSPLHVGETRKEDDPNEDWCAVCQNGGELLCCEKCPKVFHLSCHVPTLTNFPSGEWICTFCRDLSKPEVEYDCDAPSHNSEKKKTEGLVKLTPIDKRKCERLLLFLYCHEMSLAFQDPVPLTVPDYYKIIKNPMDLSTIKKRLQEDYSMYSKPEDFVADFRLIFQNCAEFNEPDSEVANAGIKLENYFEELLKNLYPEKRFPKPEFRNESEDNKFSDDSDDDFVQPRKKRLKSIEERQLLK

binding [4]: binds
B3: Myc-TRIM24 (protein, UniProt O15164 1-1050)
chain: B2 chain

binding [5]: binds | binding [4]: binds
B4: HA-RFWD3 (RING Finger and WD Repeat Domain 3) (protein, UniProt Q6PCD5 1-774)
chain: T1 sequence

— PMC12752551
